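HEK-293 cells carrying an ATXN2-luciferase reporter; luminescence signal loss after 24 h of compound exposure, with a parallel cell viability readout.
Compounds were tested as a dilution series from about 0.0037 to 57 µM.
The number is the fitted half-maximal inhibitory concentration (AC50); a lower value means a more potent inhibitor.
Calls come from curve class and activity score: actives score 40–100, while inconclusive compounds (weak, partial, poorly fitted or single-point curves) score 1–39.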

Values are in µM.
All entries here are filed as inconclusive.
These entries are mostly ones the record files as inconclusive; other results of the assay are not listed here.
Potencies fitted to partial, single-point or poorly fitting curves are rough.
Some entries filed as inconclusive have a full curve.
Activity scores are not listed here.

| compound | potency (µM) | remark |
|---|---|---|
| `O=S(=O)(Nc1ccc(O)c2ccccc12)c1ccc(F)cc1` | 7.943 | inhibitor, single point |
| `Cc1cc(C)c(CSc2ncc(-c3ccc([N+](=O)[O-])cc3)[nH]2)c(C)c1` | 31.62 | inhibitor, single point |
| `CCCCSc1nc(C)cc(SCC(=O)N/N=C/c2cccc(OC)c2O)n1` | 1.122 | inhibitor, full curve |
| `COc1ccccc1N(CC(=O)NCCSCc1ccc(C)cc1)S(=O)(=O)c1ccccc1` | 31.62 | inhibitor, single point |
| `CCCOCc1ccc(O)c2ncccc12` | 25.12 | inhibitor, single point |
| `O=C(N/N=C/c1cc(Cl)cc([N+](=O)[O-])c1O)c1cccc(S(=O)(=O)N2CCOCC2)c1` | 3.162 | inhibitor, single point |
| `CN(CCOc1ccc(Cl)cc1)C(=O)c1cc(S(=O)(=O)N2CCOCC2)ccc1N1CCCC1` | 3.548 | inhibitor, partial curve |
| `CCCCCn1c(NC(=O)c2ccco2)c(C(=O)OCC)c2nc3ccccc3nc21` | 22.39 | inhibitor, partial curve, poor fit |
| `COc1cccc(C(=O)N2N=C(c3ccccn3)CC2(O)C(F)(F)F)c1` (stereo not drawn) | 3.162 | inhibitor, partial curve, poor fit |
| `CCc1ccc(C(=O)NNC(=O)C2CCN(c3ncnc4sc(C)c(C)c34)CC2)cc1` | 1.995 | inhibitor, partial curve, poor fit |
| `NC1=NC[C@H](Cc2ccccc2)N1CCCCC1CCCCC1` | 3.981 | inhibitor, partial curve |
| `CCCCc1ccc(NC(=O)N2CCN(c3cc(C)nc4ccccc34)CC2)c(C)c1` | 17.78 | inhibitor, partial curve, poor fit |
| `CC(C)(C)n1nnnc1C(c1cccs1)N(Cc1ccc(Cl)cc1)CC1CCCO1` (stereo not drawn) | 22.39 | inhibitor, single point |
| `c1ccc(-c2sc3ccccc3c2-c2ccc(OCCN3CCCC3)cc2)cc1` | 28.18 | inhibitor, partial curve, poor fit |
| `Cc1cc(C(=O)N/N=C/c2c(CO)cnc(C)c2O)c2ccccc2n1` | 25.12 | inhibitor, partial curve, poor fit |
| `COc1c(C)cccc1C(=O)Nc1ccc(N2CCN(C(=O)c3ccccc3C)CC2)cc1` | 17.78 | inhibitor, partial curve, poor fit |
| `O=[N+]([O-])c1nn(-c2ccccc2)n(O)c1=NC1CCN(Cc2ccccc2)CC1` | 2.512 | inhibitor, partial curve |
| `Cc1onc(-c2ccccc2)c1C(=O)N/N=C/c1c[nH]c2ccccc12` | 14.13 | inhibitor, partial curve, poor fit |
| `O=C(C1CC(=O)N(c2ccc3c(c2)OCCO3)C1)N1CCN(c2ccccc2)CC1` (stereo not drawn) | 2.512 | inhibitor, partial curve, poor fit |
| `O=C(Nc1cccc(C(F)(F)F)c1)Oc1ccc(Cl)c2cccnc12` | 3.162 | inhibitor, single point |
| `Cc1ccc(C)c(/C=C/C(=O)c2ccccc(=O)c2O)c1` | 39.81 | inhibitor, single point |
| `N#Cc1nc(COc2ccc(-c3ccccc3)cc2)oc1NCc1cccnc1` | 3.162 | inhibitor, partial curve |
| `CC1(S(=O)(=O)O)CC(=O)c2ccccc2C1=O` (stereo not drawn) | 28.18 | inhibitor, partial curve, poor fit |
| `CCOC(=O)Cc1cc(=O)n2[nH]c(C)c(-c3ccc(Cl)cc3)c2n1` | 28.18 | inhibitor, single point |
| `COc1ccc(NC(=S)N(CCCN2CCOCC2)Cc2cn(C)c3ccccc23)cc1` | 17.78 | inhibitor, partial curve, poor fit |
| `COc1cc(/C=C/C(O)=C/C(=O)/C=C/c2ccc(O)cc2)ccc1O` | 7.08 | inhibitor, single point |
| `CC(C)(C)OC(=O)N1CCC(c2c(C(=O)NCC3CCN(C4CCCC4)C3)cnn2-c2cccc(Cl)c2)CC1` (stereo not drawn) | 3.162 | inhibitor, single point |
| `C/C(=N\NC(=O)C12CCC(C)(C(=O)O1)C2(C)C)c1ccccc1O` (stereo not drawn) | 2.818 | inhibitor, single point |
| `O=C(CCSc1nc2ccccc2s1)N/N=C/c1c(O)ccc2ccccc12` | 3.162 | inhibitor, full curve, poor fit |
| `CCC(C)(C)c1ccc(OCCCC[n+]2ccc(C)cc2)c(C(C)(C)CC)c1` | 3.548 | inhibitor, partial curve |
| `COc1cc(-c2cc3nc(NCc4cccc(Cl)c4)ccn3n2)cc(OC)c1OC` | 3.162 | inhibitor, single point |
| `Nc1nc(NCCc2ccccc2)nc(NCc2ccccc2)c1[N+](=O)[O-]` | 28.18 | inhibitor, single point |
| `Cn1nnnc1Sc1ncnc2scc(-c3cccs3)c12` | 17.78 | inhibitor, partial curve, poor fit |
| `C(=C\c1nc(N2CCCC2)c2ccccc2n1)/c1ccccc1` | 3.548 | inhibitor, single point |
| `CC(=O)C(=Cc1cccc(C#N)c1)C(=O)c1ccccc1` | 35.48 | inhibitor, single point |
| `COc1cc(C#Cc2c(-c3cncn3C)n(C)c3ccc(-c4cc(OC)c(OC)c(OC)c4)cc23)cc(OC)c1` | 31.62 | inhibitor, single point |
| `COc1ccccc1/C=C1\SC(=S)N(CCC(=O)NC2=NCCS2)C1=O` | 15.85 | inhibitor, partial curve |
| `O=C(c1ccc(C#Cc2ccccc2)o1)N1CCN(c2ccccn2)CC1` | 28.18 | inhibitor, single point |
| `Cc1ccc(NS(=O)(=O)c2cc3c4c(cccc4c2)C(=O)NC3=O)cc1C` | 1.585 | inhibitor, partial curve |
| `Cn1c(S(=O)(=O)c2ccc([N+](=O)[O-])cc2)nc(Br)c1Br` | 3.162 | inhibitor, single point |
| `CCOC(=O)[C@]12Cc3ccsc3[C@H]1N(Cc1ccccc1)C(=O)c1ccccc12` | 3.548 | inhibitor, single point |
| `CCCCNC(=O)C1(C)CCCCN1Cc1ccccc1-c1ccccc1` (stereo not drawn) | 25.12 | inhibitor, single point |
| `COc1ccccc1NC(=O)Nc1nc(CC(=O)N2CCN(c3ccccc3)CC2)cs1` | 35.48 | inhibitor, single point |
| `O=C(/C=C/c1cccs1)c1cc(Br)ccc1OC(=O)N1CCOCC1` | 17.78 | inhibitor, partial curve, poor fit |
| `O=C(c1ccoc1)N1CCN(c2cc(-c3ccccc3)nc3cc(-c4ccccc4)nn23)CC1` | 17.78 | inhibitor, partial curve, poor fit |
| `COc1ccc(O)c(/C=N/NC(=O)c2ccc(N3CCCC3=O)cc2)c1` | 14.13 | inhibitor, partial curve, poor fit |
| `NC(=O)CC(NC(=O)Cc1ccc(Br)cc1)c1ccc(NC2CCCC2)c([N+](=O)[O-])c1` (stereo not drawn) | 3.548 | inhibitor, single point |
| `CCN1CCN(Cc2ccc(NC(=O)c3ccc(C)c(NC(=O)c4nccnc4N)c3)cc2C(F)(F)F)CC1` | 31.62 | inhibitor, single point |
| `CCOc1ccc(-c2c[n+]3c(n2-c2ccccc2)CCCCC3)cc1` | 10 | inhibitor, partial curve, poor fit |
| `COc1ccccc1/C=C/C(=O)OCC(=O)Nc1ccc(Cl)cn1` | 31.62 | inhibitor, single point |
| `Cc1ccc(-n2ncc(C(=O)Nc3ccc(Cl)cc3)c2C2CCNCC2)cc1C` | 25.12 | inhibitor, single point |
| `O=C(NC1CCN(Cc2ccccc2)CC1)c1cccc(S(=O)(=O)Nc2ccc(SC(F)F)cc2)c1` | 15.85 | inhibitor, partial curve, poor fit |
| `CC(=O)Nc1ccc(C(=O)N/N=C/c2cc(Br)cc(Br)c2O)cc1` | 17.78 | inhibitor, partial curve, poor fit |
| `CCN(CC)C(=O)c1cccc(-c2csc(C(C)(O)c3cccc(F)c3)n2)c1` (stereo not drawn) | 3.162 | inhibitor, partial curve |
| `Cc1ccc(S(=O)(=O)N2CCc3ccccc3CC2)cc1` | 3.162 | inhibitor, partial curve, poor fit |
| `Cc1cc(C)cc(NS(=O)(=O)c2ccc3c(c2)c(=O)n(C)c(=O)n3C)c1` | 12.59 | inhibitor, partial curve, poor fit |
| `O=[N+]([O-])c1ccc(C[n+]2cccc3ccc4cccnc4c32)cc1` | 3.162 | inhibitor, single point |
| `CCOc1ccc2[nH]c3c(NCCC(C)C)ncnc3c2c1` | 35.48 | inhibitor, single point |
| `CCC1=C(OC(=O)N(CC)CC)N2C(=O)OC(=NCCc3c[nH]c4ccccc34)[C@]2(Cc2ccccc2)[C@H]2C1=CC[C@H]1C(=O)N(c3ccccc3)C(=O)[C@H]12` | 2.239 | inhibitor, full curve |

Once more, the final 4:

For Cc1cc(C)cc(NS(=O)(=O)c2ccc3c(c2)c(=O)n(C)c(=O)n3C)c1 the result was potency 12.59 µM (inhibitor, partial curve, poor fit).
For O=[N+]([O-])c1ccc(C[n+]2cccc3ccc4cccnc4c32)cc1 the result was potency 3.162 µM (inhibitor, single point).
For CCOc1ccc2[nH]c3c(NCCC(C)C)ncnc3c2c1 the result was potency 35.48 µM (inhibitor, single point).
For CCC1=C(OC(=O)N(CC)CC)N2C(=O)OC(=NCCc3c[nH]c4ccccc34)[C@]2(Cc2ccccc2)[C@H]2C1=CC[C@H]1C(=O)N(c3ccccc3)C(=O)[C@H]12 the result was potency 2.239 µM (inhibitor, full curve).

Data taken from PubChem BioAssay AID1745848, deposited by NCATS (2022).